Test results as given in PubChem BioAssay AID2685 (National Center for Advancing Translational Sciences (NCATS), 2010).
Some of the results follow. These are further read-outs of the screen, such as a control signal, another cell line or another target. No call is given for them. Compounds called inactive in the main read-out are mostly missing here. The note in brackets gives the kind of curve behind each potency; many fits are weak.

Test: qHTS Assay for Lipid Storage Modulators in Drosophila S3 Cells;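 on cell number change: cells counted by Cell Tracker Red CMTPX staining in the red channel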
Conditions: BODIPY lipid droplet fluorescence, 18-24 h; for cell number change: measured here: cell count max response, cells fed with added oleic acid
How it was run: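 Drosophila S3 cells got compounds at several concentrations plus oleic acid (400 uM solution). Laser-scanning cytometry with 488 nm excitation read lipid droplets at 500-530 nm and cells at 575-640 nm. Percent activity was relative to 20 uM Triacsin C.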

[1] = measured here: cell number channel AC50, cells fed with added oleic acid
[2] = measured here: lipid fluorescence (Fed channel) AC50, cells fed with added oleic acid

| Compound | cell number change [%] | AC50 [1] | AC50 [2] |
| --- | --- | --- | --- |
| CC(CN1CCCCC1)OC(=O)c1ccco1 (configuration not stated) | 3.95 | – | – |
| Cc1cccc(CN2C(=O)N/C(=C/c3cc(C)n(-c4cc(C)ccn4)c3C)C2=O)c1 | -70 | 16.4 µM [falling, partial curve] | 29.1 µM [falling, single point] |
| COc1ccc(/C=C(/NC(=O)c2ccccc2)c2nc3ccc(Cl)cc3[nH]2)cc1OC | 4.94 | – | – |
| COc1ccc(N2CCN(CCCNC(=S)Nc3c(C)cccc3C)CC2)cc1 | 4.84 | – | – |
| COc1ccccc1-c1cc(N)n[nH]1 | – | 1.16 µM [rising, partial curve] | 4.11 µM [rising, single point] |
| O=C(CCn1c(=S)[nH]c2ccccc2c1=O)Nc1ccc(F)cc1 | 49.5 | 1.84 µM [rising, partial curve, poor fit] | – |
| Cc1ccc(C(=O)COC(=O)CCC(=O)NC2CCCCC2)cc1C | 3.64 | – | 20.6 µM [falling, partial curve] |
| COc1ccc(-c2nc(CS(=O)CC(=O)NCc3ccc4c(c3)OCO4)c(C)o2)cc1OC (configuration not stated) | -49.9 | 29.1 µM [falling, single point] | – |
| Cc1nc2ccc(NC3=NCCCCC3)cc2s1 | 3.97 | – | 2.06 µM [falling, full curve, poor fit] |
| CC(C)CNC(=S)NC(=O)c1ccc(Cl)cc1 | 21.4 | – | 9.2 µM [rising, partial curve, poor fit] |
| Clc1ccc(OCCCCSc2ncccn2)cc1 | 58.3 | 18.4 µM [rising, single point] | – |
| COc1ccc(NS(=O)(=O)c2ccc(OCC(=O)N3CCOCC3)cc2)cc1 | 10.6 | – | 0.259 µM [rising, full curve, poor fit] |
| Cc1cc(Cl)ccc1NC(=O)CN1C(=O)NC2(CCCc3ccccc32)C1=O (configuration not stated) | 48.4 | 0.058 µM [rising, full curve] | 0.366 µM [rising, partial curve] |
| Oc1ccc(-c2nccc(-c3ccc(Br)cc3)n2)cc1 | -44.6 | 32.6 µM [falling, single point] | 29.1 µM [falling, single point] |
| Cn1nc(-c2ccccc2)cc1NC(=O)Nc1ccc(C(C)(C)C)cc1 | -28.5 | – | 14.6 µM [falling, single point] |
| COc1ccccc1C(=O)NCCC(=O)N(C)CC(=O)Nc1ccccc1Br | – | 6.51 µM [rising, single point] | – |
| Cc1c(O)cccc1C(=O)N[C@@H](CSc1ccccc1)[C@H](O)CN1C[C@H]2CCCC[C@H]2C[C@H]1C(=O)NC(C)(C)C | 45.1 | 14.6 µM [rising, partial curve, poor fit] | 32.6 µM [falling, single point] |
| O=C(COc1coc(CN2CCc3ccccc32)cc1=O)N1CCCCC1 | – | 0.146 µM [rising, full curve, poor fit] | – |
| CCOC(=O)c1cc(-c2cc(OC)c(OC)c(OC)c2)nc2c1c(=O)[nH]c(=O)n2Cc1ccccc1 | -23.1 | – | – |
| Cc1ccc(S(=O)(=O)N2CCCCC2)cc1C(=O)Nc1ccccn1 | -29.6 | 0.731 µM [falling, full curve, poor fit] | – |

| Compound | cell number change [%] | AC50 [1] | AC50 [2] |
| --- | --- | --- | --- |
| COc1ccc(/C=C2\SC(=S)N(N3C(=O)CCC3=O)C2=O)cc1O | -18.6 | – | – |
| CCOC(=O)Nc1sc2c(c1C#N)CCCC2 | -32.5 | 0.58 µM [falling, full curve, poor fit] | 29.1 µM [rising, single point] |
| Cc1ccc(-c2nn3c(C)nnc3s2)cc1NC(=O)c1cccs1 | 17 | – | 0.116 µM [rising, full curve] |
| Clc1ccc(CN2CCc3c([nH]c4ccccc34)C2)cc1Cl | -95.5 | 18.4 µM [falling, partial curve] | 16.4 µM [falling, partial curve] |
| Cc1[nH]c2ccccc2c1/C=N\NC(=O)c1ccco1 | -19.3 | – | 29.1 µM [falling, single point] |
| O=c1cc(O)c(-c2ccccc2Cl)c(Cl)[nH]1 | -31.4 | 1.3 µM [falling, full curve] | 3.66 µM [falling, full curve] |
| CC(C)(C)c1cc(C(=O)NCc2ccccc2)ccn1 | -31.8 | 9.2 µM [falling, partial curve, poor fit] | 8.2 µM [falling, partial curve] |
| CCOc1ccc(N(CC(=O)N/N=C/c2ccc(OC(C)C)cc2)S(C)(=O)=O)cc1 | -10.1 | – | 0.517 µM [rising, full curve, poor fit] |
| O=S1OCCN1c1ccccc1 (configuration not stated) | 11.3 | – | 29.1 µM [rising, single point] |
| CCCC(c1nnnn1CC(=O)OCC)N(Cc1cc2ccc(C)cc2[nH]c1=O)C1CCCC1 (configuration not stated) | -26.9 | 3.26 µM [falling, full curve, poor fit] | – |
| Cc1ccc(NC(=O)CN2C(=O)NC(C)(C3CC3)C2=O)c(C)c1 (configuration not stated) | -39.3 | 5.8 µM [falling, single point] | 29.1 µM [falling, single point] |
| COCCN(C(=O)COC(=O)c1cc2ccccc2cc1O)c1c(N)n(Cc2ccccc2)c(=O)[nH]c1=O | -10.4 | – | 23.1 µM [falling, single point] |
| N#Cc1ccccc1Cn1c(-c2cscn2)nc2ccccc21 | 13.1 | – | 0.0731 µM [rising, full curve, poor fit] |
| Cc1cc2cc(CNC(=O)Cc3cccs3)ccc2n1C | 6.12 | – | 2.59 µM [rising, full curve, poor fit] |
| CCCCc1cc(=O)oc2cc(OC(C)C(=O)NCCN3CCOCC3)c(Cl)cc12 (configuration not stated) | -0.597 | – | 3.26 µM [falling, partial curve] |
| CCc1cccc(NC(=O)C2CCCN2C(=O)Nc2ccc(C)cc2)c1 (configuration not stated) | -11.4 | – | – |
| COc1cccc(C2=NOC(C(=O)NCc3cccnc3)C2)c1 (configuration not stated) | 6.94 | – | – |
| COc1ccc(N(CC(=O)N/N=C/c2ccc3c(c2)OCO3)S(=O)(=O)c2ccccc2)cc1 | 164 | 0.116 µM [rising, full curve, poor fit] | 0.13 µM [rising, full curve, poor fit] |
| C=CCC1(CC=C)CCCN1C(=O)C1CCC(=O)N(CCc2ccccc2)C1 (configuration not stated) | -56.1 | 23.1 µM [falling, partial curve] | 29.1 µM [falling, single point] |
| O=C(C1CCC(CNS(=O)(=O)c2ccccc2)CC1)N1CCOCC1 (configuration not stated) | 15.5 | – | 13 µM [falling, single point] |

5 records picked at random from those above:

| Compound | cell number change [%] | AC50 [1] | AC50 [2] |
| --- | --- | --- | --- |
| Clc1ccc(CN2CCc3c([nH]c4ccccc34)C2)cc1Cl | -95.5 | 18.4 µM [falling, partial curve] | 16.4 µM [falling, partial curve] |
| CCCC(c1nnnn1CC(=O)OCC)N(Cc1cc2ccc(C)cc2[nH]c1=O)C1CCCC1 (configuration not stated) | -26.9 | 3.26 µM [falling, full curve, poor fit] | – |
| O=c1cc(O)c(-c2ccccc2Cl)c(Cl)[nH]1 | -31.4 | 1.3 µM [falling, full curve] | 3.66 µM [falling, full curve] |
| Cc1cc2cc(CNC(=O)Cc3cccs3)ccc2n1C | 6.12 | – | 2.59 µM [rising, full curve, poor fit] |
| COCCN(C(=O)COC(=O)c1cc2ccccc2cc1O)c1c(N)n(Cc2ccccc2)c(=O)[nH]c1=O | -10.4 | – | 23.1 µM [falling, single point] |

Next structures.

| Compound | cell number change [%] | AC50 [1] | AC50 [2] |
| --- | --- | --- | --- |
| COCc1cc(=O)n2[nH]c(C)c(-c3ccccc3)c2n1 | -0.263 | – | – |
| CC1=NN(CCC#N)C(=O)/C1=C/c1ccc(N(C)C)cc1 | 5.28 | – | – |
| Cn1ncc(Cl)c1C(=O)N1CCC(Cc2ccccc2)CC1 | 13.6 | – | 29.1 µM [rising, single point] |
| CCc1ccc(C(C(=O)NC2CCCC2)N(CCOC)C(=O)CCC(=O)Nc2cc(C)on2)cc1 (configuration not stated) | 25.7 | – | 6.51 µM [falling, partial curve] |
| COc1ccc(N2C(=O)CCC(C(=O)NCc3ccccn3)C2c2ccc(OC)c(OC)c2)cc1 (configuration not stated) | -80.1 | 13 µM [falling, partial curve] | – |
| Cc1ccc(-c2cc(C(=O)N3CCN(c4ncccn4)CC3)c3cc(Br)ccc3n2)o1 | 46.5 | – | – |
| Cc1ccc(SC(C)C(=O)Nc2ccccc2-c2ccccc2)cc1 (configuration not stated) | 2.09 | – | – |
| COc1ccc(C(=O)c2cnc[nH]2)cc1 | -20.2 | 0.00517 µM [falling, full curve] | – |
| Cc1cc(=O)n(C)c(=O)n1CCCCCCOc1ccc([N+](=O)[O-])cc1 | -1.55 | – | – |
| Cc1cccc(-c2nc(CN3CCCC(C(=O)NC4CCCCC4)C3)c(C)o2)c1 (configuration not stated) | -58.6 | 29.1 µM [falling, single point] | – |
| CCOC(=O)c1c(/N=C/N(C)C)sc(/C=N/Nc2ccccc2)c1-c1ccccc1 | -38.4 | 29.1 µM [falling, single point] | 0.164 µM [rising, full curve, poor fit] |
| Cc1ccc(S(=O)(=O)N2CCC(C(=O)NC3CCCC3)CC2)cc1Cl | 8.26 | – | 2.91 µM [falling, single point] |
| COC(=O)C1CSC(c2ccc(Cl)cc2)N1C(=O)c1ccccc1 (configuration not stated) | -45.6 | 0.103 µM [falling, full curve] | 23.1 µM [falling, partial curve] |
| Cc1nnc(-c2cnn(C)c2N)n1Cc1ccccc1 | – | – | 0.651 µM [falling, full curve, poor fit] |
| COc1ccc(-n2nc(C(=O)NCC(=O)NCCCN3CCCCCC3)c3ccccc3c2=O)cc1Cl | -31.9 | – | – |
| COc1ccc(N2CCN(S(=O)(=O)CCNC(=O)COc3ccccc3OC)CC2)cc1 | – | – | 6.51 µM [rising, single point] |
| COc1ccccc1CNC(=O)CCc1nc2ccccc2c(=O)[nH]1 | 41.9 | 9.2 µM [rising, partial curve, poor fit] | 16.4 µM [rising, partial curve] |
| O=C(NCCN1CCOCC1)c1cc2sccc2n1Cc1ccc(F)cc1 | 40.9 | 0.291 µM [rising, partial curve, poor fit] | – |
| Cc1cc(C)n2cc(CSc3nncn3C)nc2n1 | -30.5 | – | 35.5 µM [falling, partial curve, poor fit] |
| C[C@@]12C(=O)N(CC3CC3)CC(=O)N1[C@H](/C=C/c1ccccc1)[C@@H]1C(=O)N(c3ccccc3)C(=O)[C@@H]12 | 0.299 | – | 29.1 µM [falling, single point] |
